This is an account of results in publication PMC5105168.

Protein sequences, listed by entry. Tags and fused reporters are not part of them. Lines headed by an entry give the natural chain unless they say otherwise; changes in a name come on top.
UniProt O43823: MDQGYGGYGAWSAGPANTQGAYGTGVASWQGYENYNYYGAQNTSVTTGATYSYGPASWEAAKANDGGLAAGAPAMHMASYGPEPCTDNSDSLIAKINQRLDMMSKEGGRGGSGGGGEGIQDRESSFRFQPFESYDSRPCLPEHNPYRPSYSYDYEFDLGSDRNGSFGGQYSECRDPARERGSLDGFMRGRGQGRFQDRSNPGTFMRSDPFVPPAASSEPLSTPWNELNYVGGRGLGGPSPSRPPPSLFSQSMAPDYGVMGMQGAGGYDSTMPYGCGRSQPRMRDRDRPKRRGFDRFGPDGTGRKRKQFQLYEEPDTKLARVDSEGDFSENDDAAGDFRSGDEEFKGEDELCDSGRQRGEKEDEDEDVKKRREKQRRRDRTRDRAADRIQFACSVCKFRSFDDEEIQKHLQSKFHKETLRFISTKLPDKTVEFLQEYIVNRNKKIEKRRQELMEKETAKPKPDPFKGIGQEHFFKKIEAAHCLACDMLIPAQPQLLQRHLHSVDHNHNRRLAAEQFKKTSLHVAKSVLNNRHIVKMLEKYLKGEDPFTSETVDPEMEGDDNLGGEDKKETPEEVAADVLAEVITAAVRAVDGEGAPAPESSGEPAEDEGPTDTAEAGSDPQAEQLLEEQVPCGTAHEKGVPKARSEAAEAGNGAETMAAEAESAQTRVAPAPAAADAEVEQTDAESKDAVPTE

Assay [1] has as its target MBP fused to AKAP95 wild type (human) (UniProt O43823). The experiment in a line: pull-down; 293T cells co-transfected with MBP-tagged and FH-tagged AKAP95 constructs, precipitated by amylose resin, immunoblot.
In assay [2] the target is T1, purified His-tagged hnRNP F (UniProt P52597).
T1 sequence: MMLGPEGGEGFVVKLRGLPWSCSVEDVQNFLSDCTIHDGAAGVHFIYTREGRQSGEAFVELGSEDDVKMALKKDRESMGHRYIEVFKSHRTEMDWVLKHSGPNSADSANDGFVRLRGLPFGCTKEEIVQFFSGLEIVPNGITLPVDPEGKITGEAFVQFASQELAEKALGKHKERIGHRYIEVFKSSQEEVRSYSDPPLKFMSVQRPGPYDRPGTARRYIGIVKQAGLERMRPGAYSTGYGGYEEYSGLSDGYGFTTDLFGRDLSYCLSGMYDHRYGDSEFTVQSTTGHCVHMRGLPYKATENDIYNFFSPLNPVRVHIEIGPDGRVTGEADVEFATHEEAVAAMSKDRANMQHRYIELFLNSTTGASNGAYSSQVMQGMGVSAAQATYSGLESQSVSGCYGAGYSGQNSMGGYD
The experiment in a line: pull-down; purified His-hnRNP F bound to Ni resin, purified F-AKAP95 proteins in solution, BC200, 0.1% NP40, immunoblot; both purified.

Assay [3] has as its target T2, GST-hnRNP M (human (cDNA from 293 cells)) (UniProt P52272).
T2 sequence: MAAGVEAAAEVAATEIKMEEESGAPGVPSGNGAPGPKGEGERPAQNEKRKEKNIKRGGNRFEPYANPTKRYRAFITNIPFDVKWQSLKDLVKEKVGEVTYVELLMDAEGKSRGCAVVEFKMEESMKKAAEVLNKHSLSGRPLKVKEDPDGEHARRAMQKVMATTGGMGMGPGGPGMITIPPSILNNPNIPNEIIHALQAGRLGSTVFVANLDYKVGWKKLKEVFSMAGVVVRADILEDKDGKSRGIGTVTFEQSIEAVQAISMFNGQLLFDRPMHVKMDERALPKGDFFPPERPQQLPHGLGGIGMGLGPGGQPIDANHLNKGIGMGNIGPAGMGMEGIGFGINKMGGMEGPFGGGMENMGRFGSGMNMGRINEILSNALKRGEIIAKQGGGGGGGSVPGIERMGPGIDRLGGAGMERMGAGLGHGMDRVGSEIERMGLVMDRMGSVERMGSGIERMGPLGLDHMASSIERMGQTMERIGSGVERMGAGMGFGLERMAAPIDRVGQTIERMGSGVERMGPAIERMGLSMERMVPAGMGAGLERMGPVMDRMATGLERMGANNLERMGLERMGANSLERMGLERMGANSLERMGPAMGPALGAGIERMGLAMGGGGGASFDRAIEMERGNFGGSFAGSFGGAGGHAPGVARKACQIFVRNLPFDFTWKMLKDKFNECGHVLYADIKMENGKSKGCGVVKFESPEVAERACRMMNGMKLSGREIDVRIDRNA
The experiment in a line: pull-down; GST fusions bound to glutathione resin, purified F-AKAP95 proteins in solution, BC200, 0.1% NP40, immunoblot; both purified.

Results are given in words; binding and its absence hold for the method and conditions named. For some assays here: Binding seen in cells or lysates may run through a third protein. Some binding calls cover weakened binding; strength is not graded here. For some assays here: Sequences can lack the tags named with a protein.

Consider “FLAG-HA-tagged AKAP95 (101–692) (from UniProt O43823 101-692) (domain or fragment)”, for which, in assay [1], the binding result is recorded as “binds”. Take “purified Flag-tagged AKAP95 (from UniProt O43823 1-692)”: the binding result in assay [2] and in assay [3] was “binds” throughout. Turning to “FLAG-HA-tagged full-length human AKAP95 (from UniProt O43823 1-692)”, the binding result in assay [1] is reported as “binds”. For “FLAG-HA-tagged AKAP95 (1–210) (from UniProt O43823 1-210) (domain or fragment)”, the binding entry in assay [1] is “binds”.
